Laboratory results reported in patent publication US20150099796.

Key:
[1] = system: U1 snRNP (U1 small nuclear ribonucleoprotein, HeLa) (Homo sapiens); assay: EMSA; settings: purified native protein
[2] = system: U1 snRNP (U1 small nuclear ribonucleoprotein, HeLa) (Homo sapiens); assay: competition with a labelled probe; settings: LNA/DNA Target Domain, 2'-OMe U1 Domain (7 nt); no detectable competition against 32P-U1D-RNA; purified native protein

CAACUCACUA [mutated U1 Domain RNA]: no binding ([1]; CITED Abad 2008, Gunderson 1998, variant of 10 nt U1 Domain RNA).
“CAGAAATACACAATACAACTCACTA [UA7a Adaptor (LNA7)]”: no binding ([1]; LNA/DNA mixmer, mutated U1 Domain, no complex, variant of UA6 Adaptor (LNA6)).
“CAGAAATACACAATACAGGTAAGTA [UA6 Adaptor (LNA6)]”: binds ([1]; LNA/DNA mixmer, radiolabeled UA6 bound, unlabeled UA6 also tethers U1 snRNP to 32P-UA6-RNA, recognition by base pairing with U1 snRNA, 100 mM KCl, 1.5 mM MgCl2, pH 7.9).
CAGAAATACACAATACAGGUAA [UA17-7 Adaptor]: no binding [2].
CAGGUAAGUA [10 nt U1 Domain RNA]: binds ([1]; CITED Abad 2008, Gunderson 1998).

For at least one entry, the source does not settle the construct or the ends of the probe. A negative result means that nothing was seen under these conditions.
